Data as given in PubChem BioAssay AID2685 (National Center for Advancing Translational Sciences (NCATS), 2010).
The list shows a part of the results. These are further read-outs of the screen, such as a control signal, another cell line or another target. No call is given for them. The list favours compounds with an active or inconclusive main result. The note in brackets gives the kind of curve behind each potency; many fits are weak.

Test: qHTS Assay for Lipid Storage Modulators in Drosophila S3 Cells;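 as to cell number change: cells counted by Cell Tracker Red CMTPX staining in the red channel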
Settings: BODIPY lipid droplet fluorescence, 18-24 h; for cell number change: measured here: cell count max response, cells fed with added oleic acid
How it was run: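 Drosophila S3 cells loaded with oleic acid (400 uM, as added) and compounds at several concentrations; lipid droplets imaged by 488-nm laser-scanning cytometry, 500–530 nm intensity and object ratio to cell channel. Percent activity normalized to 20 uM Triacsin C.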

[1] = measured here: cell number channel AC50, cells fed with added oleic acid
[2] = measured here: lipid fluorescence (Fed channel) AC50, cells fed with added oleic acid

| Compound | cell number change [%] | AC50 [1] | AC50 [2] |
| --- | --- | --- | --- |
| CCOC(=O)C(CCC#N)(CCC#N)C(=O)OCC | -14.8 | 0.651 µM [falling, full curve, poor fit] | 2.59 µM [falling, full curve] |
| O=C(CSc1ccc(Cl)cc1)Nc1ccccc1N1CCN(C(=O)c2ccccc2)CC1 | 0.417 |  |  |
| COc1ccc(CCC(=O)Nc2cccc(S(=O)(=O)N3CCCCCC3)c2)cc1 | 4.02 |  |  |
| COc1ccc(OC)c(C(C(=O)NCc2ccco2)N(C(=O)Cn2nnc3ccccc32)C2CC2)c1 (stereo not given) | -4.19 |  | 0.461 µM [rising, full curve, poor fit] |
| CCOc1ccc(NC(=O)CCNS(=O)(=O)c2cccc3nsnc23)cc1 | 15.4 |  | 8.2 µM [rising, partial curve, poor fit] |
| Cc1oc(C(C)(C)C)cc1C(=O)Nc1cccc(C(=O)O)c1 | -13.9 |  | 0.164 µM [falling, full curve] |
| CCc1c(C(C)S(=O)(=O)c2ccccc2)[nH]c(=O)n1CC (stereo not given) | -30.6 | 0.651 µM [falling, full curve, poor fit] |  |
| O=C(NC(=S)Nc1ccc2[nH]c(=O)[nH]c2c1)c1cccc(F)c1 | 32.8 |  | 6.51 µM [rising, single point] |
| CCOc1ccc(NS(=O)(=O)c2cc(OCC(N)=O)c(C)cc2Cl)cc1 | 34.3 | 2.91 µM [rising, full curve, poor fit] |  |
| CCN1CCc2c(OCC(=O)Nc3cccc(C)c3C)cccc2C1=O | 21.2 |  |  |
| O=C(Nc1ccc2c(c1)OCO2)c1cc(-c2cccc(O)c2)on1 | 15.4 |  | 4.61 µM [rising, single point] |
| Cc1csc(NC(=O)CSc2nnc(-c3cccnc3)o2)n1 | 28.1 |  |  |
| Cc1ccc(S(=O)(=O)Nc2cccc(C(=O)NCC(c3ccco3)N3CCCC3)c2)cc1F (stereo not given) | 4.61 |  | 23.1 µM [rising, single point] |
| CCN(C(=O)CN1CCN(Cc2ccccc2)CC1)c1c(N)n(Cc2ccccc2)c(=O)[nH]c1=O | -26.1 |  |  |
| CCN1C(=O)[C@H]2[C@@H](c3ccc(OC)cc3)N3C(=O)CN(Cc4ccccc4)C(=O)[C@@]3(Cc3ccccc3)[C@H]2C1=O | 2.4 |  | 0.184 µM [falling, full curve, poor fit] |
| COc1ccc(-c2csc(NC(=O)C3=COCCO3)n2)cc1OC | 76.1 | 9.2 µM [rising, partial curve] |  |
| CC(C)(/C=N/O)/[N+]([O-])=C/c1ccco1 | -26.2 | 0.651 µM [falling, full curve, poor fit] | 4.61 µM [falling, full curve] |
| COc1ccccc1C(=O)N1C(CC(=O)Nc2cc(Cl)ccc2C)C(=O)NC2CCCCC21 (stereo not given) | -0.0804 |  |  |
| COc1c(C=O)c(CCN(C)C(=O)c2ccc(F)cc2)cc2c1OCO2 |  |  | 29.1 µM [rising, single point] |
| Cc1nn(CC(=O)N(C)c2c(N)n(Cc3ccccc3)c(=O)[nH]c2=O)c(C)c1[N+](=O)[O-] | 6.61 |  | 0.00461 µM [rising, full curve, poor fit] |
| CCOC(=O)c1ccccc1NC(=O)C1COc2ccccc2O1 (stereo not given) | -25.9 |  |  |

3 entries from above, with bars between the fields.
Compound | cell number change [%] | AC50 [1] | AC50 [2]
COc1ccc(OC)c(C(C(=O)NCc2ccco2)N(C(=O)Cn2nnc3ccccc32)C2CC2)c1 (stereo not given) | -4.19 |  | 0.461 µM [rising, full curve, poor fit]
CCN1CCc2c(OCC(=O)Nc3cccc(C)c3C)cccc2C1=O | 21.2 |  | 
CCN1C(=O)[C@H]2[C@@H](c3ccc(OC)cc3)N3C(=O)CN(Cc4ccccc4)C(=O)[C@@]3(Cc3ccccc3)[C@H]2C1=O | 2.4 |  | 0.184 µM [falling, full curve, poor fit]

Continuation.

| Compound | cell number change [%] | AC50 [1] | AC50 [2] |
| --- | --- | --- | --- |
| COc1cc(CO)c(Br)cc1OCC(N)=O | -47.4 | 29.1 µM [falling, single point] | 4.11 µM [falling, partial curve] |
| O=C(OCC(=O)c1c[nH]c2ccccc12)C1=COCCO1 |  | 0.00461 µM [rising, full curve, poor fit] |  |
| CCOc1ccc(N2C(=O)C3C(C2=O)C3(c2ccccc2)c2ccccc2)cc1 (stereo not given) | -35.6 | 16.4 µM [falling, partial curve] | 13 µM [falling, partial curve, poor fit] |
| Cc1cc2ncc(C(=O)N=CN(C)C)cn2n1 | 11.5 |  |  |
| CC1(C)CC(=O)c2c(O)cc(OCC(=O)N3CCN(c4ccccc4)CC3)cc2O1 | 8.09 |  | 29.1 µM [falling, single point] |
| CCN(CC)Cc1cc(CC(C(N)=O)C(N)=O)ccc1OC | 6.14 |  | 0.00461 µM [falling, full curve, poor fit] |
| CCCCC(=O)NC(=S)Nc1cc([N+](=O)[O-])ccc1OC |  |  | 3.26 µM [rising, partial curve, poor fit] |
| O=C(CSc1ncn[nH]1)Nc1c(F)cc(F)cc1Br | 26.4 |  |  |
| CCN(CC(=O)Nc1cc(Cl)ccc1C)C(=O)CCOc1ccccc1C | -13.9 |  |  |
| COc1ccc(C(CNC(=O)c2ccc(-c3nc4ccccc4s3)o2)N2CCCC2)cc1 (stereo not given) | 3.3 |  | 1.84 µM [rising, partial curve, poor fit] |
| COc1ccc(-c2cc(C(=O)N3CCCc4ccccc43)no2)cc1 | -0.527 |  | 0.0461 µM [rising, full curve, poor fit] |
| COc1ccc2[nH]cc(CCn3ccc(O)c(C/C=C/c4ccccc4)c3=O)c2c1 | -65.5 | 5.17 µM [falling, partial curve] | 2.91 µM [falling, full curve] |
| Brc1ccc(-n2cc(-c3ccccc3)c3c(NN4CCOCC4)ncnc32)cc1 | 19.9 |  | 23.1 µM [rising, partial curve, poor fit] |
| COc1ccc(/C=C/C(=O)c2cc(F)ccc2OC(=O)c2ccc(OC)c(OC)c2)cc1OC | 0.271 |  | 29.1 µM [falling, single point] |
| COC(=O)CN1C(=O)C(O)=C(C(C)=O)C1c1ccc([N+](=O)[O-])cc1 (stereo not given) | -25.2 | 0.116 µM [falling, full curve] | 25.9 µM [falling, single point] |
| COc1ccc(Cl)cc1S(=O)(=O)N1CCCC1 | -32.6 | 2.06 µM [falling, full curve] | 0.0291 µM [rising, full curve, poor fit] |
| Cc1ccc(CNC(=O)CN2C(C)CCCC2C)cc1 (stereo not given) | 10.3 | 6.51 µM [rising, single point] |  |
| N/C(=N\N=C\c1ccc2c(c1)OCO2)SC1CC(=O)N(c2ccc(C(=O)O)cc2)C1=O (stereo not given) | -11.9 |  |  |
| Cc1cccc(NC(=S)NC(=O)CCc2ccccc2)c1C | -8.5 |  | 29.1 µM [rising, single point] |
| CC(=O)c1ccccc1OCCOc1ccccc1C(C)=O | -28.6 |  | 4.61 µM [falling, partial curve, poor fit] |
| COc1ccc(N2CCN(C(=O)c3ccc4c(=O)n5c(nc4c3)CCCCC5)CC2)cc1 | 15.7 |  | 29.1 µM [rising, single point] |

| Compound | cell number change [%] | AC50 [1] | AC50 [2] |
| --- | --- | --- | --- |
| O=C(NC1CCCC1)c1cc(-c2ccccc2O)on1 | 23.8 |  |  |
| CCCc1ccc(-c2ccc(/C=C/C(=O)O)cc2)nc1 | -7.09 | 5.17 µM [rising, single point] | 3.26 µM [rising, partial curve] |
| O=C(Nc1cccc([N+](=O)[O-])c1)Nc1ccc(Cl)cn1 | 23.7 |  | 10.3 µM [rising, partial curve] |
| C=CCOc1ccc2c(c1)C(=NO)c1cc(OCC=C)ccc1-2 | -62.1 | 4.11 µM [falling, single point] | 29.1 µM [falling, single point] |
| Cc1ccc(S(=O)(=O)N2CCN(Cc3ccco3)CC2)c(C)c1 | 0.348 |  |  |
| Cc1ccc(-c2nnn(CC(=O)N(c3ccccc3F)C(C(=O)NC3CCCC3)c3ccco3)n2)o1 (stereo not given) | -0.961 |  | 0.58 µM [falling, single point] |
| COc1ccc(CN(C)C(=O)CC(c2ccccc2)c2ccccc2)cc1 | 4.78 |  | 2.91 µM [falling, single point] |
| CCOc1cc2[nH]c(=S)n(Cc3ccc(C(=O)NCCN(CC)CC)cc3)c(=O)c2cc1OCC | -33.8 | 5.8 µM [falling, full curve, poor fit] |  |
| Cc1noc(C)c1S(=O)(=O)Nc1c(C)n(C)n(-c2ccccc2)c1=O |  | 0.0411 µM [falling, single point] | 0.731 µM [falling, full curve, poor fit] |
| FC(F)(F)c1ccc(C2[C@H]3CN(CC4CCCCC4)[C@H](c4ccccc4)C34CC2(c2cccnc2)C4)cc1 (stereo not given in full) | -7.14 |  | 2.59 µM [rising, single point] |
| COC(=O)c1ccc(NC(=O)CNS(=O)(=O)c2cccs2)cc1 | 5.13 |  |  |
| COCCCNC(=O)CCn1c(=O)c2ccccc2n(CC(=O)Nc2ccccc2C)c1=O | 4.96 |  | 0.146 µM [rising, full curve, poor fit] |
| Fc1ccc2[nH]c3c(NCCN4CCOCC4)ncnc3c2c1 | -35 |  | 29.1 µM [falling, single point] |
| CCCCCC(=O)N/N=C(\C)c1ccc(Cl)cc1 | -28.4 |  | 18.4 µM [falling, single point] |
| Cc1c(C(=O)N/N=C/c2ccncc2)nnn1-c1nonc1N | 1.17 |  |  |
| Cc1ccc(Nc2nc(N)nc(CSc3nnnn3-c3ccccc3)n2)cc1 | -38.2 | 29.1 µM [falling, single point] |  |
| CCOc1ccc(CNCc2ccccc2Cl)cc1 | 1.67 | 6.51 µM [falling, single point] | 4.11 µM [falling, single point] |
| CC(C)C(=O)Nc1c2c(nn1-c1ccc(F)cc1)CSC2 | 7.08 |  | 16.4 µM [rising, partial curve] |
| COc1ccc(-c2noc(CN(C)S(=O)(=O)c3ccc(Cl)cc3)n2)cc1OC | 239 | 4.11 µM [rising, full curve] | 3.26 µM [rising, full curve] |
